Read-outs that look alike come from different tables or passages of the source. At least one compound was matched to its structure with a doubt left.
How the values were obtained:
[1] = oxygen radical absorbance capacity (ORAC) assay; assay type: biochemical; conditions: isolated and reference compounds
Description: ORAC assay was carried out according to the method of Ou, G. and colleagues (1993) with some modifications. Trolox and FL were used as a standard and a fluorescent probe respectively. Free radicals were produced by AAPH to oxidize FL. Different dilutions of Trolox ([…]) and appropriate dilutions of tested sample were prepared with phosphate buffer (10 mM, pH 7.4). Trolox dilution ([…]) or sample solution were pipetted into a well of 96-well black microplate (VWR) and then FL (150 mL, 10 nM) was added. The reaction mixture was incubated at 37° C. for 30 min Afterward s, fluorescence was measured every 90 sec at the excitation of 485 nm and the emission of 520 nm using FLUOstar OPTIMA. After 3 cycles, AAPH ([…], 240 mM) was added quickly, and then the measurement was resumed and continued up to 90 min (60 cycles in total). The background signal was determined using the first 3 cycles. The ORAC values were calculated according to the method of Ou, G. and colleagues (1993) and expressed as Trolox equivalent (mmol TE/mmol). After freeze-drying in triplicate, MPLC fractions M1-M8 were analyzed in natural concentrations.

[2] = cited from earlier work
[3] = hydrogen peroxide scavenging assay; assay type: biochemical; conditions: isolated and reference compounds; read-out: H2O2 assay EC50
Description: Hydrogen peroxide scavenging assay was performed in accordance with the method of Ichikawa, M. and colleagues (2002). Sample solutions at appropriate concentration were prepared using phosphate buffer (100 mM, pH 6.0). Sample solution ([…]), phosphate buffer (30 mL, 100 mM, pH 6.0), and hydrogen peroxide solution (10 mL, 500 mM) were mixed in 96-well clear microplate (VWR, Ismaning, Germany). Then peroxidase (40 mL, 150 U/mL) and ABTS (40 mL, 0.1%) were added. The microplate was incubated at 37° C. for 15 min. The absorbance (A) of each well was measured at 414 nm with FLUOstar OPTIMA (BMG LABTECH, Offenburg, Germany). […] After freeze-drying three times 1 MPLC fractions M1-M8 were analyzed in natural concentrations.
E=[(A−Ablank)control−(A−Ablank)test]/(A−Ablank)control·100

C[C@@H]1O[C@@H](OC[C@H]2O[C@@H](Oc3c(-c4ccc(O)c(O)c4)oc4cc(O)cc(O)c4c3=O)[C@H](O)[C@@H](O)[C@@H]2O)[C@H](O)[C@H](O)[C@H]1O [rutin]
ORAC assay [1]: 6.45 μmol TE/μmol | ORAC, Literature ([2]; Values from Ou et al.): 6.01 μmol TE/μmol | ORAC, Literature ([2]; Values from Wolfe and Liu (stereochemistry of naringenin and taxifolin not stated)): 13.70 μmol TE/μmol | EC50 [3]: 6.9 µM
